This passage reports binding results from article PMC7283332.

The chains behind the UniProt entries cited, without tags or fusion partners. Where a name states a change or a piece, a line headed by the entry shows the natural chain unless it says otherwise. A line that says so, or that is headed by a name, gives the form on record, which may keep a tag or linker.
Fc-iNKG2D.YA (P26718, form named): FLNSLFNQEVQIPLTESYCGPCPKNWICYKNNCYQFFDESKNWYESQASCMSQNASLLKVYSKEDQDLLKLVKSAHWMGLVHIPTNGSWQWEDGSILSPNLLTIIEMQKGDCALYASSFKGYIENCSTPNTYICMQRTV

These are yes or no findings as the source states them, for the method shown. Where a sequence is shown, tags or fusion partners need not be part of it.

The experiment deals with Fc-iNKG2D.YA (human) (UniProt P26718). The experiment can be described thus: BLI; FortéBio Octet; Fc-wtNKG2D, Fc-iNKG2D.YA or Fc-iNKG2D.AF captured on anti-human IgG Fc capture (AHC) biosensor tips; titration series of monomeric MIC-His ligands or monomeric ULBP2 variants; both purified.

B1: MICA*001 α1α2 domain, C-terminal 6×-His (domain or fragment, UniProt Q29983 24-205)
chain: EPHSLRYNLTVLSWDGSVQSGFLTEVHLDGQPFLRCDRQKCRAKPQGQWAEDVLGNKTWDRETRDLTGNGKDLRMTLAHIKDQKEGLHSLQEIRVCEIHEDNSTRSSQHFYYDGELFLSQNLETKEWTMPQSSRAQTLAMNVRNFLKEDAMKTKTHYHAMHADCLQELRRYLKSGVVLRRTV
Turning to B1, the binding entry was “no binding”.

B2: ULBP6 α1α2 domain, C-terminal 6×-His (domain or fragment, UniProt Q5VY80 29-212)
chain: DPHSLCYDITVIPKFRPGPRWCAVQGQVDEKTFLHYDCGNKTVTPVSPLGKKLNVTMAWKAQNPVLREVVDILTEQLLDIQLENYTPKEPLTLQARMSCEQKAEGHSSGSWQFSIDGQTFLLFDSEKRMWTTVHPGARKMKEKWENDKDVAMSFHYISMGDCIGWLEDFLMGMDSTLEPSAGAP
Take B2: the binding entry was “no binding”.

B3: ULBP5 α1α2 domain, C-terminal 6×-His (domain or fragment, UniProt Q6H3X3-1 29-212)
chain: DPHSLCYDITVIPKFRPGPRWCAVQGQVDEKTFLHYDCGSKTVTPVSPLGKKLNVTTAWKAQNPVLREVVDILTEQLLDIQLENYIPKEPLTLQARMSCEQKAEGHGSGSWQLSFDGQIFLLFDSENRMWTTVHPGARKMKEKWENDKDMTMSFHYISMGDCTGWLEDFLMGMDSTLEPSAGAP
Regarding B3, the binding result is listed as “no binding”.

B4: MICB α1α2 domain, C-terminal 6×-His (domain or fragment, UniProt Q29980 24-205)
chain: EPHSLRYNLMVLSQDGSVQSGFLAEGHLDGQPFLRYDRQKRRAKPQGQWAENVLGAKTWDTETEDLTENGQDLRRTLTHIKDQKGGLHSLQEIRVCEIHEDSSTRGSRHFYYDGELFLSQNLETQESTVPQSSRAQTLAMNVTNFWKEDAMKTKTHYRAMQADCLQKLQRYLKSGVAIRRTV
Turning to B4, the binding entry was “no binding”.

B5: ULBP3 α1α2 domain, C-terminal 6×-His (domain or fragment, UniProt Q9BZM4 30-212)
chain: DAHSLWYNFTIIHLPRHGQQWCEVQSQVDQKNFLSYDCGSDKVLSMGHLEEQLYATDAWGKQLEMLREVGQRLRLELADTELEDFTPSGPLTLQVRMSCECEADGYIRGSWQFSFDGRKFLLFDSNNRKWTVVHAGARRMKEKWEKDSGLTTFFKMVSMRDCKSWLRDFLMHRKKRLEPTAPP
For B5, the binding result is “no binding”.

B6: ULBP1 α1α2 domain, C-terminal 6×-His (domain or fragment, UniProt Q9BZM6 29-212)
chain: DTHCLCYDFIITPKSRPEPQWCEVQGLVDERPFLHYDCVNHKAKAFASLGKKVNVTKTWEEQTETLRDVVDFLKGQLLDIQVENLIPIEPLTLQARMSCEHEAHGHGRGSWQFLFNGQKFLLFDSNNRKWTALHPGAKKMTEKWEKNRDVTMFFQKISLGDCKMWLEEFLMYWEQMLDPTKPPS
Regarding B6, the binding entry was “no binding”.
